In publication PMC12462935:
Results are given in words; binding and its absence hold for the method and conditions named. In cells and extracts the contact can be indirect. Some binding calls cover weakened binding; strength is not graded here. For part of these data: Where a sequence is shown, tags or fusion partners need not be part of it. One block for each binder: values may come before it.

Protein sequences, listed by entry. Tags and fused reporters are not part of them.
UniProt P19474: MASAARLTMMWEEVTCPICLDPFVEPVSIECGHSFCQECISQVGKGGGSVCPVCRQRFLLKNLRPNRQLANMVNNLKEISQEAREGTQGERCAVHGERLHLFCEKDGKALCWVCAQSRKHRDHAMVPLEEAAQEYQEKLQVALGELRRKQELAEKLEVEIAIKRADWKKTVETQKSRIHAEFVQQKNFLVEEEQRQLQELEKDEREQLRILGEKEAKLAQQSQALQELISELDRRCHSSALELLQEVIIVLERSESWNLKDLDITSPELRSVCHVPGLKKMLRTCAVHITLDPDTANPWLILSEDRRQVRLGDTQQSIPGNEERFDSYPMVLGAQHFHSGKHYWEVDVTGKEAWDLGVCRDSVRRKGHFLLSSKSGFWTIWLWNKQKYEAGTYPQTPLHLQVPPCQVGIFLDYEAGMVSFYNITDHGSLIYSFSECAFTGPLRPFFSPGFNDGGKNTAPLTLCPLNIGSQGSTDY

Legend:
Flag-TRIM21 [1] = molecular target: Flag-TRIM21 (UniProt P19474); experiment: co-IP; HEK293T cells co-transfected with tagged constructs (for ID1 with TCF3, TCF4 or TCF12: with TRIM21 or control vector); MG132 20 µM 6 h, lysates with primary antibodies and protein A/G magnetic beads overnight at 4 °C, immunoblot
[2] = molecular target: TRIM21 (endogenous) (human (endogenous in KYSE30 and KYSE450)) (UniProt P19474); experiment: co-IP; endogenous proteins in KYSE30 and KYSE450 cells; anti-TRIM21 or anti-ID1 antibody for TRIM21 with ID1; for TCF12 with ID1 cells treated with 5 µM Sorafenib or not; MG132 20 µM 6 h, protein A/G magnetic beads, immunoblot
Flag-TRIM21 [3] = molecular target: Flag-TRIM21 (UniProt P19474); experiment: co-IP; truncated constructs of ID1 (pEBG-GST) tested with TRIM21 and truncated constructs of TRIM21 (pcDNA3) tested with ID1; cells not given

binding (Flag-TRIM21 [1]): binds
B1: Myc-ID1 (protein, UniProt P41134 1-155)
chain: MKVASGSTATAAAGPSCALKAGKTASGAGEVVRCLSEQSVAISRCAGGAGARLPALLDEQQVNVLLYDMNGCYSRLKELVPTLPQNRKVSKVEILQHVIDYIRDLQLELNSESEVGTPGGRGLPVRAPLSTLNGEISALTAEAACVPADDRILCR

binding [2]: binds
B2: ID1 (endogenous) (protein, UniProt P41134 1-155)
chain: MKVASGSTATAAAGPSCALKAGKTASGAGEVVRCLSEQSVAISRCAGGAGARLPALLDEQQVNVLLYDMNGCYSRLKELVPTLPQNRKVSKVEILQHVIDYIRDLQLELNSESEVGTPGGRGLPVRAPLSTLNGEISALTAEAACVPADDRILCR

binding (Flag-TRIM21 [3]): binds
B3: ID1#2 (basic helix-loop-helix (bHLH) domain) (domain or fragment, UniProt P41134 53-105)
chain: LPALLDEQQVNVLLYDMNGCYSRLKELVPTLPQNRKVSKVEILQHVIDYIRDL
